From article doi:10.1101/2022.07.21.500812
Results are given in words; binding and its absence hold for the method and conditions named.

By UniProt entry, the sequences of proteins in these tests, tags left out. Where a name states a change or a piece, a line headed by the entry shows the natural chain unless it says otherwise. Chains listed by the source or under a name are the forms on record and can include a tag or linker. Residues count along the entry.
UniProt Q8K1S4, residues 26-359: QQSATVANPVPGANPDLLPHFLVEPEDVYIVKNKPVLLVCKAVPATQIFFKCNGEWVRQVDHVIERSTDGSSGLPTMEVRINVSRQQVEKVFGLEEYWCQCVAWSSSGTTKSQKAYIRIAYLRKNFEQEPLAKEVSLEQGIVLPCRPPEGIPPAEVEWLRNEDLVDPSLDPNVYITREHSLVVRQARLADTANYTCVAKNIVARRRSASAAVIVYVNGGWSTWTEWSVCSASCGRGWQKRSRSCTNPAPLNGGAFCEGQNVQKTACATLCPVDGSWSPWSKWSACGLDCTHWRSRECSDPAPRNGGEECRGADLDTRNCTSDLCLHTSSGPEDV
hGPC3^core N241Q (hGPC3^coreUG) (P51654, form named): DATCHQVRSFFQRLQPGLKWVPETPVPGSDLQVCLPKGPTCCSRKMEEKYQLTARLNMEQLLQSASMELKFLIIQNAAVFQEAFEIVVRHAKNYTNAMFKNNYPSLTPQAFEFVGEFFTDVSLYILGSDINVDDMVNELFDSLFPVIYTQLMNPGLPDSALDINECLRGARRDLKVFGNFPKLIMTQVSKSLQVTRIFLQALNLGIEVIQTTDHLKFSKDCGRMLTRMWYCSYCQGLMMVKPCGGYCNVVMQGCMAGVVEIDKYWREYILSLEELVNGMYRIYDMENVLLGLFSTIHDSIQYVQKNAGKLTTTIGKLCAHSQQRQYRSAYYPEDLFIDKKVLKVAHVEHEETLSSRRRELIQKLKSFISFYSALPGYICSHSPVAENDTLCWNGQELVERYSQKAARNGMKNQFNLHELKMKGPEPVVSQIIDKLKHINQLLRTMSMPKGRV

Molecular target: mouse Unc5A ectodomain (mUnc5A^ecto, residues 1-359) (mouse) (UniProt Q8K1S4)
Experiment: SPR

Substance: hGPC3^core N241Q (hGPC3^coreUG) (from UniProt P51654 32-483) (domain or fragment)
- binding: no binding
